Literature values, collected in US20240159750A1, “METHODS FOR DIAGNOSIS AND TREATMENT OF COVID-19” (priority 2021, published 2024).
For at least one compound, name, drawing or mass did not settle the structure.

Tested on: hospitalized COVID-19 patients
Details: interim report, WHO solidarity trial; cited from earlier work

## CCC(CC)COC(=O)[C@H](C)N[P@](=O)(OC[C@H]1O[C@@](C#N)(c2ccc3c(N)ncnn23)[C@H](O)[C@@H]1O)Oc1ccccc1 [remdesivir]
  effect on hospitalized COVID-19 patients: little or no effect
